From patent US12467038B2, “Methods of culturing human pluripotent cells” (Hadasit Medical Research Services and Development Ltd., priority 2019, dated 2025)

Tested on: hPSCs
Test: Reduced representation bisulphite sequencing (RRBS), genome-wide CpG methylation
Assay type: cell-based, human

Substance: LN111: mouse LN111, 3-D Culture Matrix Laminin I (CULTREX, TREVIGEN), coating of culture dishes
- Genome-wide CpG methylation level (HES-1 cultured on LN111): 57
- Genome-wide CpG methylation level (HES-2 cultured on LN111): 61
